In article PMC5302413, “Bifunctional peptide-based opioid agonist/nociceptin antagonist ligand for dual treatment of nociceptive and neuropathic pain” (Pain, 2016):
Structures can show the parent of a compound that is named as a salt.

Test system: Sprague-Dawley rats
Assay: Whole-body plethysmography, respiratory effects in rats
Settings: IV, sigmoidal Emax model, mean (CV%)

SMILES	Inspiratory time γ (Hill coefficient)
Cc1cc(O)cc(C)c1C[C@H](N)C(=O)N[C@H](CCCNC(=N)N)C(=O)NC1Cc2ccccc2CN(CCC(N)=O)C1=O (stereo partly drawn) [KGOP1, H-Dmt-D-Arg-Aba-βAla-NH2]	2.4 (32.7)
CN1CC[C@]23c4c5ccc(O)c4O[C@H]2[C@@H](O)C=C[C@H]3[C@H]1C5 [Morphine, Morphine sulfate, reference compound]	4.4 (16.7)
COc1cccc(C2(O)CCCCC2CN(C)C)c1 (stereo not drawn) [Tramadol, Tramadol hydrochloride, reference compound]	2 (27.5)
